Experimental findings from publication PMC9396411 are described below.

The chains behind the UniProt entries cited, without tags or fusion partners. Residues count along the entry.
UniProt P39688: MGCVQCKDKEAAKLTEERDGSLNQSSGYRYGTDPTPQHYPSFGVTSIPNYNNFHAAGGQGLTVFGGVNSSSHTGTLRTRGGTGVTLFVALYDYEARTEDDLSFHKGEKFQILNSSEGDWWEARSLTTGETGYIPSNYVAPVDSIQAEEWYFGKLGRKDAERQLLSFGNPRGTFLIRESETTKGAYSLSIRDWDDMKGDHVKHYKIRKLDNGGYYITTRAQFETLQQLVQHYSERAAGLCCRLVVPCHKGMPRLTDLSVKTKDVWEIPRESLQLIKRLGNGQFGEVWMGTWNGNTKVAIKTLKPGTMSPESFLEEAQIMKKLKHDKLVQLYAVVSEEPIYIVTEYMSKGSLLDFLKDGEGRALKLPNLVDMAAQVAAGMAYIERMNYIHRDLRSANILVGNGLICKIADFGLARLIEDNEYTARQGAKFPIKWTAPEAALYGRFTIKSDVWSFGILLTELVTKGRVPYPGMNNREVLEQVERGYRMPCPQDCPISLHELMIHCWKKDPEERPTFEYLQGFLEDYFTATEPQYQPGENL
UniProt Q08509: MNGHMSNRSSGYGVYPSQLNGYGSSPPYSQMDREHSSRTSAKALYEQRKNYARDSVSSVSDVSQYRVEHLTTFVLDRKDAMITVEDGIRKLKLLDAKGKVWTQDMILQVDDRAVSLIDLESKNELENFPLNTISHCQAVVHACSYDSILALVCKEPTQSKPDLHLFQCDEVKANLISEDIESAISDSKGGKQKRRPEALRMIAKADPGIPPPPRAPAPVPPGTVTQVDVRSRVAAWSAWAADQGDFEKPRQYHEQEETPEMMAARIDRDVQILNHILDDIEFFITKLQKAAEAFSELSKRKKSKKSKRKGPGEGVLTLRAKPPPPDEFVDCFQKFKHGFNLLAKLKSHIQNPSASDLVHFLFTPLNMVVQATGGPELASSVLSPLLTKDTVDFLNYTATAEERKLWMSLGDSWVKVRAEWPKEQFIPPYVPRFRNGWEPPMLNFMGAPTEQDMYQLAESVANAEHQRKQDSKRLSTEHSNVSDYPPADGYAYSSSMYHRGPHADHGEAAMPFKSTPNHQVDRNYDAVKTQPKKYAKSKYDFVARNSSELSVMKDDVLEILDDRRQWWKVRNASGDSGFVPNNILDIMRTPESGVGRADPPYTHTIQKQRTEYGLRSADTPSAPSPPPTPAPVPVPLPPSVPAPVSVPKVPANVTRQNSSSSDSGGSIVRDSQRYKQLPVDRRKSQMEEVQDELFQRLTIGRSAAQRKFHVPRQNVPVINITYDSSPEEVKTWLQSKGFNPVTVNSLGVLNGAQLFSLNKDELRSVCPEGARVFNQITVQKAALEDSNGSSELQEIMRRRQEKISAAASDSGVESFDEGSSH
UniProt P07356: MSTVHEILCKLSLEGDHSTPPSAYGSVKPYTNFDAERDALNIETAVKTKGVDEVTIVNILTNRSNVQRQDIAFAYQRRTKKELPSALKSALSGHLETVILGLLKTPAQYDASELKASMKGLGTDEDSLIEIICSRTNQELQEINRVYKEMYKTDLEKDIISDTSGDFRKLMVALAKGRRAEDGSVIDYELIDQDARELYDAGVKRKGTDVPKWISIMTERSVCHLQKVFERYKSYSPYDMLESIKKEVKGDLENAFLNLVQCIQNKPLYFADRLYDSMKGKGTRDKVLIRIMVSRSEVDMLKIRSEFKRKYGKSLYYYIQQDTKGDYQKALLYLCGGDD
UniProt Q9JLB9, residues 58-549: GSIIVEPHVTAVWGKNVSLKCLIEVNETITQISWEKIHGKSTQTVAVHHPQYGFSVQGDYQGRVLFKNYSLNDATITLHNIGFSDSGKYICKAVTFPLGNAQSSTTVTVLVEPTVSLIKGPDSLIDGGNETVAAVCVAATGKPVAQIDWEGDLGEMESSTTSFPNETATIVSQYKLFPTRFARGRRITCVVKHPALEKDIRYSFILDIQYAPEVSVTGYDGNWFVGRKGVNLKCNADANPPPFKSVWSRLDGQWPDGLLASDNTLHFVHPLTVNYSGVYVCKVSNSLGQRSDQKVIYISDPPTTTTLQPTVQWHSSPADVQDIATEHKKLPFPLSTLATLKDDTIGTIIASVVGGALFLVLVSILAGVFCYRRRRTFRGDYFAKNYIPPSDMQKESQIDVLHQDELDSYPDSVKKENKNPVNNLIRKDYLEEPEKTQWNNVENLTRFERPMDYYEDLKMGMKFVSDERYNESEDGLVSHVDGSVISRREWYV
UniProt Q02248: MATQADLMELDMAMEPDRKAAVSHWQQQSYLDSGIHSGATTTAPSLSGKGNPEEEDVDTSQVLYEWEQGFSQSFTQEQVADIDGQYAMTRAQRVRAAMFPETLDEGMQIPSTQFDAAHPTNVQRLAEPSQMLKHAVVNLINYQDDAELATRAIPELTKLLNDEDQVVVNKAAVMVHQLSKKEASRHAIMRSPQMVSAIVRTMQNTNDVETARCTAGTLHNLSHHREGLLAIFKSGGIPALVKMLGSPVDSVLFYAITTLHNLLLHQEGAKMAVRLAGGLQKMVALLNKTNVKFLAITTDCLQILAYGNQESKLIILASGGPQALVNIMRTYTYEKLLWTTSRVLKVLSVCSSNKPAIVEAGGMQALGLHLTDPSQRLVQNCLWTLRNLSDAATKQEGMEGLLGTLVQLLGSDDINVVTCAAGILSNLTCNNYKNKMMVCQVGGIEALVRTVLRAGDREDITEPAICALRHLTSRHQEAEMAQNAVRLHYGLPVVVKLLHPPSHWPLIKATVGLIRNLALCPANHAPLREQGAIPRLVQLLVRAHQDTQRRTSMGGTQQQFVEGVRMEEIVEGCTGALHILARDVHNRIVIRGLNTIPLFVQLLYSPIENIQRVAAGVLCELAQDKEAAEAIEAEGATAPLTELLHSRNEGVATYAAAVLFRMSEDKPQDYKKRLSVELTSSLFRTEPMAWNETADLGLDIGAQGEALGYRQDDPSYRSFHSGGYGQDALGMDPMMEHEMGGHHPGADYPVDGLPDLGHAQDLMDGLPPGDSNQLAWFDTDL

Results are given in words; binding and its absence hold for the method and conditions named. Binding seen in cells or lysates may run through a third protein. Some entries that bind do so weakly or less than the wild type.

The target of this test is FYN (mouse (endogenous in testis)) (UniProt P39688). Description: co-IP; precleared mouse testis lysate (~800 µg total protein) with 2 µg antibody (anti-FYN IgG) overnight at 4°C, Protein A/G plus-agarose 6 h, washed with IP lysis buffer, immunoblot; negative control normal rabbit IgG; untreated adult mice, and for Arp3 also mice 6, 16, 24 and 48 h after CdCl2 (3 mg/kg b.w., i.p.). Background: In western blotting, separated proteins are transferred to a membrane and probed.

With “Eps8 (epidermal growth factor receptor pathway substrate 8) (from UniProt Q08509 1-821)”, the binding entry is “binds”.
In the case of annexin A2 (from UniProt P07356 1-339), the binding result is “binds”.
With nectin-3 (from UniProt Q9JLB9 58-549) the entry was “binds”.
In the case of β-catenin (from UniProt Q02248 1-781), the binding result is “binds”.

B1: occludin (protein, UniProt Q61146 1-521)
chain: MSVRPFESPPPYRPDEFKPNHYAPSNDMYGGEMHVRPMLSQPAYSFYPEDEILHFYKWTSPPGVIRILSMLIIVMCIAIFACVASTLAWDRGYGTGLFGGSLNYPYSGFGYGGGYGGGYGGYGYGYGGYTDPRAAKGFLLAMAAFCFIASLVIFVTSVIRSGMSRTRRYYLIVIIVSAILGIMVFIATIVYIMGVNPTAQASGSMYGSQIYMICNQFYTPGGTGLYVDQYLYHYCVVDPQEAIAIVLGFMIIVAFALIIFFAVKTRRKMDRYDKSNILWDKEHIYDEQPPNVEEWVKNVSAGTQDMPPPPSDYAERVDSPMAYSSNGKVNGKRSYPESFYKSTPLVPEVAQEIPLTLSVDDFRQPRYSSNGNLETPSKRAPTKGKAGKGKRTDPDHYETDYTTGGESCEELEEDWVREYPPITSDQQRQLYKRNFDAGLQEYKSLQAELDDVNKELSRLDKELDDYREESEEYMAAADEYNRLKQVKGSADYKSKRNYCKQLKSKLSHIKRMVGDYDRRKP
B1: the binding entry is reported as “binds”.

B2: CAR (protein, UniProt P97792 20-365)
chain: LSITTPEQRIEKAKGETAYLPCKFTLSPEDQGPLDIEWLISPSDNQIVDQVIILYSGDKIYDNYYPDLKGRVHFTSNDVKSGDASINVTNLQLSDIGTYQCKVKKAPGVANKKFLLTVLVKPSGTRCFVDGSEEIGNDFKLKCEPKEGSLPLQFEWQKLSDSQTMPTPWLAEMTSPVISVKNASSEYSGTYSCTVQNRVGSDQCMLRLDVVPPSNRAGTIAGAVIGTLLALVLIGAILFCCHRKRREEKYEKEVHHDIREDVPPPKSRTSTARSYIGSNHSSLGSMSPSNMEGYSKTQYNQVPSEDFERAPQSPTLAPAKVAAPNLSRMGAVPVMIPAQSKDGSIV
For the molecule B2, the binding entry was “binds”.
